Experimental data from patent US20030232342.

Amino acid sequences for entries named in this document (tags omitted). A change or cut given only in a name is not applied to a line headed by its entry.
UniProt P06855: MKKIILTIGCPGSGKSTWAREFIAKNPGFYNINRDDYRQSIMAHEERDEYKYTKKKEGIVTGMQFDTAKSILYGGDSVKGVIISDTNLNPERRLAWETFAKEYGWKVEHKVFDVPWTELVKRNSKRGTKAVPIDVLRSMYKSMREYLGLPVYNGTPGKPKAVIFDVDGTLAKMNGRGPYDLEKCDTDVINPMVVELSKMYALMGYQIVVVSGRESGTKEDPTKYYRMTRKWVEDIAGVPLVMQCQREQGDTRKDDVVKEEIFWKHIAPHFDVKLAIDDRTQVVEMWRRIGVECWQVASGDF

Target: T4 polynucleotide kinase (Enterobacteria phage T4) (UniProt P06855)
Test: activity assay
Conditions: 5' phosphorylation, microwave 700 W 20-50 s; result in FIG. 4; protein details: Bangalore Genei; label: 32P; single-stranded DNA

## CCCCGCCCCGCGCCCCGCCCCGCGCCCCGCCCCGCGCCCCGCCCCGCGCCCCGCCCCGCG [60-mer oligonucleotide (12-mer x5)]
  activity on this sequence: active
